Reference: doi:10.1101/526152

Chains of the proteins cited; added tags and fusions are not shown. Lines headed by an entry give the natural chain unless they say otherwise; changes in a name come on top. Residues count along the entry.
UniProt P46940: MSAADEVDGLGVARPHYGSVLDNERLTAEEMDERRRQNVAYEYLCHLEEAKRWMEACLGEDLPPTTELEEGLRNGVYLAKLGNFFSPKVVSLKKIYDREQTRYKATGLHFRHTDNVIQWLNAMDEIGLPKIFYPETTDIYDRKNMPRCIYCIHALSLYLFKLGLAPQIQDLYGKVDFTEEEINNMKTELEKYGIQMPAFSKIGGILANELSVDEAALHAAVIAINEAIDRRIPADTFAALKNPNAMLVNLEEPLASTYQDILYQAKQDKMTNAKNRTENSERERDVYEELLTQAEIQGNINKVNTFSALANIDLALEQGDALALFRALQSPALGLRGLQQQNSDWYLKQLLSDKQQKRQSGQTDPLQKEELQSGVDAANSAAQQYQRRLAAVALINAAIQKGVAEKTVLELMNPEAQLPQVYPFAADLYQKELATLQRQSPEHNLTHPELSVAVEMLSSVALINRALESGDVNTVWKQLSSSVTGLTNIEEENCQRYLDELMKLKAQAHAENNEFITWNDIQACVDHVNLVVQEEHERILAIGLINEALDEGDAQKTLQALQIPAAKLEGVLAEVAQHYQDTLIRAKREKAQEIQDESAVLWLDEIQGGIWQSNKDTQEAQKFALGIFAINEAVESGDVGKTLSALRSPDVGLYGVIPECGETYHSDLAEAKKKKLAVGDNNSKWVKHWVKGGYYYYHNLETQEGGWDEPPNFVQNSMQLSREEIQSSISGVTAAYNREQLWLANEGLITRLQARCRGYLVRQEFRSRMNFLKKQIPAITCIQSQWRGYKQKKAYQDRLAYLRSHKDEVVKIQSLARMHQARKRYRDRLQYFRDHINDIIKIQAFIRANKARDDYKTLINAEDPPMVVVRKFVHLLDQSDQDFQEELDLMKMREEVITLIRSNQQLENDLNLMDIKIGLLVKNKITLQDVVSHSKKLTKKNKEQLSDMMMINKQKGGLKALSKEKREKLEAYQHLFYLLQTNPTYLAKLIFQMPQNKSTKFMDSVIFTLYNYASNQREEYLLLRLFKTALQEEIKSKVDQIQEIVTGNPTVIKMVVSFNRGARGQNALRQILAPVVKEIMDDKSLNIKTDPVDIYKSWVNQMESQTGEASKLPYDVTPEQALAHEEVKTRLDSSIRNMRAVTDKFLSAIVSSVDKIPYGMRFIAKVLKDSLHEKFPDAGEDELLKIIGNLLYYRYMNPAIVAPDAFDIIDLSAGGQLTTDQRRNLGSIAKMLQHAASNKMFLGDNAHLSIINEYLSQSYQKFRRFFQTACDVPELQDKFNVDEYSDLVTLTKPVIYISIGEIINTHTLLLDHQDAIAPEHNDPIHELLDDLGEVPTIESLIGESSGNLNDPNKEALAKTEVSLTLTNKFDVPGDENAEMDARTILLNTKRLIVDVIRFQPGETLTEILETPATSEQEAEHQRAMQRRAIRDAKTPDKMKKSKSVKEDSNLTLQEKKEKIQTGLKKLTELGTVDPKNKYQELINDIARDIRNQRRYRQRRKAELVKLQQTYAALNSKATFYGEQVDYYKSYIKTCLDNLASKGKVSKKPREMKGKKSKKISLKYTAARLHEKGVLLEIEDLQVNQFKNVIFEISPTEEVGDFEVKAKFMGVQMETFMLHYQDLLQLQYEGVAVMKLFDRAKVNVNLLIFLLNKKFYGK
GST-IQGAP1-N (aa 1–863): residues 1-863 of P46940
GST-IQGAP1-C (aa 746–1657): residues 746-1657 of P46940

Columns and labels:
[1] = biological target: GST-IQGAP1-C (aa 746–1657) (human) (UniProt P46940); assay: pull-down
[2] = biological target: GST-IQGAP1-N (aa 1–863) (human) (UniProt P46940); assay: pull-down
[3] = biological target: IQ motif-containing GTPase-activating protein 1 (IQGAP1) (human (endogenous in skin fibroblasts)) (UniProt P46940); assay: co-IP

Substance	binding [1]	binding [2]	binding [3]
p122RhoGAP/DLC-1 (1–801) (from UniProt Q96QB1-2) (domain or fragment)	no binding	no binding	–
p122RhoGAP/DLC-1 (1–546) (from UniProt Q96QB1-2) (domain or fragment)	no binding	no binding	–
p122RhoGTPase-activating protein (GAP)/deleted in liver cancer-1 (p122RhoGAP/DLC-1) (from UniProt Q96QB1-1)	–	–	binds

Results are given in words; binding and its absence hold for the method and conditions named. Binding seen in cells or lysates may run through a third protein. For some assays here: A result given as binding can be weak or reduced; the word gives no strength.
